This note sets out measurements from patent publication US11925621B2, “Medicinal preparation for external use” (Sumitomo Pharma Co., Ltd., priority 2018, dated 2024).

Format in all cases: in vivo
The nature of series [1]: Concentration of the test compound in plasma after evaluation in SNL rats. To be noted: Wistar, rat, topical about 10 mg formulation, blood collected immediately after evaluation (2 hours after application). The method, then: One day after the division into groups, test compounds were administered. […] Administration of a test compound was carried out by application of about 10 mg of each formulation on a medical adhesive film, and attachment of the film to a footpad of a SNL rat at the side of operation under anesthesia with isoflurane inhalation. One hour after the application, the film was removed, and another one hour after, reaction thresholds after administration of the test compound were evaluated. After the evaluation, blood was immediately collected from a cervical vein, and the concentration of the test compound in plasma was measured.

The test system of series [2] is ECG (electrocardiogram) parameters of guinea pigs. The series can be described thus: Safety pharmacology study of the cardiovascular system: ECG parameters under anesthesia. On the procedure:
Test 3. Safety Pharmacology Study of the Cardiovascular System Effect of Compound A or lidocaine to the cardiovascular system was studied from effects on ECG (electrocardiogram) parameters of guinea pigs under anesthesia. Evaluation of ECG of guinea pigs was conducted under anesthesia with intra-abdominal administration of a mixed solution of urethane and α-chloralose. Guinea pigs under anesthesia were retained in a supine position, and a right cervical vein was exposed to […] cannula. […] QRS interval and QTc interval are shown as rates of change (%) by similar equations.

A short description of series [3]: Concentration in plasma during continuous intravenous administration in guinea pigs. To be noted: dose of 15 mg/kg continuous intravenous for 30 minutes. The method, then: Effect of Compound A or lidocaine to the cardiovascular system was studied from effects on ECG (electrocardiogram) parameters of guinea pigs under anesthesia. Evaluation of ECG of guinea pigs was conducted under anesthesia with intra-abdominal administration of a mixed solution of urethane and α-chloralose. Guinea pigs under anesthesia were retained in a supine position, and a right cervical vein was exposed to […] cannula. […] Compound A dissolved in a solvent at a dose of 30 mg/kg, lidocaine dissolved in a solvent at a dose of 15 mg/kg, or a solvent was continuously intravenously administered via a cannula at a constant rate for 30 minutes. […] QRS interval and QTc interval are shown as rates of change (%) by similar equations.

Compound `CCN(CC)CC(=O)Nc1c(C)cccc1C` [lidocaine, reference compound] had a concentration at 2 h in series [1] of 133 ng/mL. In series [2] (15 mg/kg continuous intravenous for 30 minutes, at 30 minutes after administration), the “QTc interval rate of change (prolonged)” value worked out at 15.8%. Besides, the “plasma concentration with effect on ECG parameters relative to that at which the analgesic effect appeared” value in series [2] (guinea pig maximum plasma concentration at 15 mg/kg versus SNL rat plasma concentration) is on record as “about 27 times”. The “maximum concentration in plasma” value in series [3] stood at 3.57 µg/mL.
